Literature values as cited in paper PMC5434815, “The role of histidines in amyloid β fibril assembly” (Febs Letters, 2017).

Settings: cited from earlier work

For “Aβ1–40 wt: wild‐type amyloid β 1–40, recombinant, obtained from AlexoTech (Umeå, Sweden) [reference compound]”, the “extracellular concentration in vivo” value is given as “around 1 nM”.
